From PubChem BioAssay AID1508600 (Functional Genomics Laboratory (NCATS/FGL), 2020)
The campaign covered roughly 53,000 sequences. About 3,700 (7%) were called active.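 How the source made its calls: active means gene knockdowns whose robust z-score for IL-1 alpha signal is at least 2 or at most -2, so actives lie on both sides; inactive means the rest.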 The list shows a part of the results.

Assay: Components of the Cytosolic LPS Sensing Pathway: Gene Identification via Genome-wide siRNA Screen;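 further: robust z of the log signal after scaling to non-targeting control siRNA wells of the plate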
Settings: RAW264.7 macrophages, IL-1a HTRF, actives lie on both sides, screened at 100 nM (by protocol), cells primed 5 h with Pam3CSK4 first
In short: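 IL-1a HTRF of supernatants after 24 hour LipidA transfection of Pam3CSK4-primed (5 hours) RAW264.7 cells, 48h post-siRNA transfection (100 nM). Scores: percent of plate negative-control median, then log-based robust z-score.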

Sequence | z-score
GGUGAAACUAAAAAUGGUCTT against Egfl6 | inactive: -1.07
GGCUAUGCAGCAUAUUAUATT against Ndufa1 | inactive: 1.22
GCAAACCUGAAGUUUAUGATT against Rps19bp1 | inactive: -0.321
GCACUGAACUUUCCUGACCTT against Ppdpf | inactive: 1.78
UAAGGCCAUCUAGUGGAGATT against C8g | inactive: -0.199
GGACUUUAUUGAAAAUCUGTT against Zfp365 | inactive: 0.593
GCUACAAGCGAUAUAUUCCTT against Jak1 | inactive: 1.8
GCCUUUCCACCGAUGAAAUTT against Dpyd | inactive: -0.473
GGAAUCAUUUGAAUCAGGATT against Swt1 | inactive: -0.592
GGGCUGUUUAACAAGAUCATT against Mthfsd | inactive: 1.51
GCUCAAUUGUUCUUCUUUUTT against Olfr806 | inactive: -1.13
CGACUAUUUGGGUGGCAAGTT against Scin | inactive: -0.103
GGCAUUCAGAAACAUGGUUTT against Esx1 | inactive: -1.5
GCUCUUAAUCCUAUCUAUCTT against Rgs9bp | inactive: 0.0012
GCCACUACUUAGUGUCUUCTT against Plcd1 | inactive: 0.0041
CCAGUCUUAUCUGUAGAAGTT against Obox1 | inactive: -1.69
GCAUGCUUUCUGAAUACAATT against Cdk8 | active: 2.17
GGUUUAGGAUUUUUUGUUGTT against Ccr5 | inactive: 0.121
GGAUAAUUGGGAUGAUGACTT against Sem1 | active: -2.24
GGUUAAUCUGAGAAUUCUATT against Kcnk1 | inactive: 0.717
CCAACUUUAUCUAAGGUGCTT against Bhmt | inactive: -0.349
GGUGAUAAAGCCAAGCAAATT against Vps4b | inactive: -0.48
GGAUAAAAUUGAGUCUAUGTT against Was | inactive: 1.81
GGGUGAGUCACGAAAGUCATT against Epor | inactive: -0.453
GCAUGCAUCUUCCUUCGACTT against Cabp2 | inactive: -1.4
GGAAGACAUUCACGAUUGUTT against Deptor | inactive: -0.0976
GGGACAAGAAGAACAAGAGTT against Srp14 | inactive: -1.33
GGCUGUCUUCUGAAGGACATT against Mrpl43 | inactive: -0.429
GUGCAGUUGUGACAAUAUATT against Pramel3 | inactive: -1.23
GGACUUCAACUUGAUGGAGTT against Add2 | active: 2.02

No new results follow: entries from further up.
Sequence | z-score
GGAAGACAUUCACGAUUGUTT against Deptor | inactive: -0.0976
GGGACAAGAAGAACAAGAGTT against Srp14 | inactive: -1.33
GGCUGUCUUCUGAAGGACATT against Mrpl43 | inactive: -0.429
GUGCAGUUGUGACAAUAUATT against Pramel3 | inactive: -1.23
GGACUUCAACUUGAUGGAGTT against Add2 | active: 2.02
